Consider 1 molecule from ChEMBL document CHEMBL1143746, “Synthesis and biological evaluation of sulfonylhydrazone-substituted imidazo[1,2-a]pyridines as novel PI3 kinase p110alpha inhibitors” (Bioorg Med Chem, 2007).

Assay [1] has as its system MCF7. The assay can be described thus: Inhibition of serum-induced proliferation of human MCF7 cells. The assay is classed as functional, cell-based.
Assay [2] has as its system MCF7. Description: Inhibition of serum-induced proliferation of human adriamycin-resistant MCF7 cells. The assay is classed as functional, cell-based.

As to `COc1cccc2c1C(=O)c1c(O)c3c(c(O)c1C2=O)C[C@@](O)(C(=O)CO)C[C@@H]3O[C@H]1C[C@H](N)[C@H](O)[C@H](C)O1` [DOXORUBICIN], the results for the IC50 with MCF7 [1] and with MCF7 [2] were 0.0071 µM and 17 µM, respectively.
